Some of these results come from one statement about several compounds together.
Legend:
Format in all cases: in vivo
[1] = tested on: Tobacco Budworm (Heliothis virescens); assay: Tobacco budworm, insect diet microtiter plate test; settings: 2500 ppm; eggs on sprayed insect diet; egg and larval mortality after 5 days; in comparison with untreated controls
[2] = tested on: Vetch Aphid (Megoura viciae); assay: Vetch aphid, broad bean leaf disk test; settings: 2500 ppm; adult aphids on sprayed broad bean leaf disks; 5 days; in comparison with untreated controls
Summary of the method: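 Broad bean leaf disks sprayed with compounds in 25% DMSO/water at various concentrations, two replicates, then air-dried and infested with 5-8 adult Megoura viciae (contact/systemic exposure). After 5 days at about 23±1 °C and 50±5% RH, mortality and fecundity scored visually.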

[3] = tested on: Green Peach Aphid (Myzus persicae); assay: Green peach aphid, systemic test on artificial diet in microtiter plates; settings: 2500 ppm; adult aphids on treated artificial diet; 3 days; in comparison with untreated controls
Summary of the method: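 Adult aphids (5-8 per well) fed through a membrane on artificial diet containing compound formulated in 75% water/25% DMSO, with two replications per concentration. Incubation lasted 3 days at about 23±1° C and 50±5% relative humidity. Mortality and fecundity were then assessed visually.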

[4] = tested on: Rice Green Leafhopper (Nephotettix virescens); assay: Rice green leafhopper, sprayed rice seedlings; settings: 300 ppm; adults on sprayed rice seedlings; after 72 hours; in comparison with untreated controls
[5] = tested on: Green Soldier Stink Bug (Nezara viridula); assay: Green soldier stink bug, sprayed soybean pods in Petri dishes; settings: 300 ppm; late 3rd instar on soybean pods; after 5 days; in comparison with untreated controls
Procedure: B.11 Green Soldier Stink Bug (Nezara viridula)
The active compound was dissolved at the desired concentration in a mixture of 1:1 (vol:vol) distilled water:acetone. Surfactant (Kinetic HV) was added at a rate of 0.01% (vol/vol). The test solution was prepared at the day of use.
Soybean pods were placed in glass Petri dishes lined with moist filter paper and inoculated with ten late 3rd instar N. viridula. Using a hand atomizer, approximately 2 ml solution is sprayed into each Petri dish. Assay arenas were kept at about 25° C. Percent mortality was recorded after 5 days.

[6] = tested on: Southern Armyworm (Spodoptera eridania); assay: Southern armyworm, sprayed lima bean plants; settings: 1 ppm; larvae on sprayed lima bean plants; 4 days after treatment; in comparison with untreated controls
Procedure: B.10 Southern Armyworm (Spodoptera eridania)
The active compounds were formulated in cyclohexanone as a 10,000 ppm solution supplied in tubes. The tubes were inserted into an automated electrostatic sprayer equipped with an atomizing nozzle and they served as stock solutions for which lower dilutions were made in 50% acetone:50% water (v/v). A nonionic surfactant (Kinetic®) was included in the solution at a volume of 0.01% (v/v).
Lima bean plants (variety Sieva) were grown 2 plants to a pot and selected for treatment at the 1st true leaf stage. Test solutions were sprayed onto the foliage by an automated electrostatic plant sprayer equipped with an atomizing spray nozzle. The plants were dried in the sprayer fume hood and then removed from the sprayer. Each pot was placed into perforated plastic bags with a zip closure. About 10 to 11 armyworm larvae were placed into the bag and the bags zipped closed. Test plants were maintained in a growth room at about 25° C. and about 20-40% relative humidity for 4 days, avoiding direct exposure to fluorescent light (24 hour photoperiod) to prevent trapping of heat inside the bags. Mortality and reduced feeding were assessed 4 days after treatment, compared to untreated control plants.

[7] = tested on: Red Spider Mite (Tetranychus kanzawai); assay: Red spider mite, sprayed cowpea beans; settings: 300 ppm; mites on sprayed cowpea beans; 72 hours after treatment; in comparison with untreated controls
[8] = tested on: Mediterranean Fruitfly (Ceratitis capitata); assay: Mediterranean fruitfly, insect diet microtiter plate test; settings: 2500 ppm; eggs on sprayed insect diet; egg and larval mortality after 5 days; in comparison with untreated controls
[9] = tested on: Orchid Thrips (dichromothrips corbetti); assay: Orchid thrips, floral-immersion technique; settings: 300 ppm; adult thrips on dipped orchid petals; 72 hours after treatment; in comparison with untreated controls
[10] = tested on: Diamond Back Moth (Plutella xylostella); assay: Diamond back moth, cabbage leaf dip test; settings: 300 ppm; 3rd instar larvae on dipped cabbage leaves; 72 hours after treatment; in comparison with untreated controls
[11] = tested on: Boll Weevil (Anthonomus grandis); assay: Boll weevil, insect diet microtiter plate test; settings: 2500 ppm; eggs on sprayed insect diet; egg and larval mortality after 5 days; in comparison with untreated controls
Summary of the method: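 Compounds in 75% water/25% DMSO sprayed at several concentrations (5 μl, two replicates) onto insect diet in 96-well microtiter plates holding 5-10 A. grandis eggs. After 5 days at about 25±1° C and 75±5% relative humidity, egg and larval mortality scored visually.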

Measured: mortality

CCN1OCC(NC(=O)c2ccc(C3=NOC(c4cc(Cl)cc(Cl)c4)(C(F)(F)F)C3)c3c2CCC3)C1=O (mixture of isomers) [Compound 1-38]
at least 75%: all assays above

O=C(CNC(=O)c1ccc(C2=NOC(c3cc(Cl)c(F)c(Cl)c3)(C(F)(F)F)C2)c2c1CCC2)NC1CC1 (stereo not shown) [Compound 1-47]
not listed: [6]
at least 75%: all other assays above

O=C(CNC(=O)c1ccc(C2=NOC(c3cc(Cl)c(F)c(Cl)c3)(C(F)(F)F)C2)c2c1CCC2)NCCF (stereo not shown) [Compound 1-48]
not listed: [6]
at least 75%: all other assays above

O=C(NCC1CC1(F)F)c1ccc(C2=NOC(c3cc(Cl)c(F)c(Cl)c3)(C(F)(F)F)C2)c2c1CCC2 (stereo not shown) [Compound 1-50]
not listed: [6]
at least 75%: all other assays above

CNC(=O)CNC(=O)c1ccc(C2=NOC(c3cc(Cl)c(F)c(Cl)c3)(C(F)(F)F)C2)c2c1CCC2 (stereo not shown) [Compound 1-53]
not listed: [6]
at least 75%: all other assays above

O=C(NCc1cscn1)c1ccc(C2=NOC(c3cc(Cl)c(F)c(Cl)c3)(C(F)(F)F)C2)c2c1CCC2 (stereo not shown) [Compound 1-54]
not listed: [6]
at least 75%: all other assays above

O=C(NC1CCOC1)c1ccc(C2=NOC(c3cc(Cl)c(F)c(Cl)c3)(C(F)(F)F)C2)c2c1CCC2 (stereo not shown) [Compound 1-55]
not listed: [6]
at least 75%: all other assays above

O=C(NCC1CCC1)c1ccc(C2=NOC(c3cc(Cl)c(F)c(Cl)c3)(C(F)(F)F)C2)c2c1CCC2 (stereo not shown) [Compound 1-58]
not listed: [6]
at least 75%: all other assays above

O=C(NC1CC(F)(F)C1)c1ccc(C2=NOC(c3cc(Cl)c(F)c(Cl)c3)(C(F)(F)F)C2)c2c1CCC2 (stereo not shown) [Compound 1-59]
not listed: [6]
at least 75%: all other assays above

O=C(NCC1CC(F)(F)C1)c1ccc(C2=NOC(c3cc(Cl)c(F)c(Cl)c3)(C(F)(F)F)C2)c2c1CCC2 (stereo not shown) [Compound 1-60]
not listed: [6]
at least 75%: all other assays above

O=C(NCc1ncccn1)c1ccc(C2=NCC(c3cc(Cl)cc(Cl)c3)(C(F)(F)F)C2)c2c1CCC2 (stereo not shown) [Compound 2-17]
not listed: [6]
at least 75%: all other assays above

O=C(NC1CC1)c1ccc(C2=NCC(c3cc(Cl)cc(Cl)c3)(C(F)(F)F)C2)c2c1CCC2 (stereo not shown) [Compound 2-18]
not listed: [6]
at least 75%: all other assays above

O=C(NCc1cscn1)c1ccc(C2=NCC(c3cc(Cl)cc(Cl)c3)(C(F)(F)F)C2)c2c1CCC2 (stereo not shown) [Compound 2-20]
not listed: [6]
at least 75%: all other assays above

CCN1OCC(NC(=O)c2ccc(C3=NCC(c4cc(Cl)cc(Cl)c4)(C(F)(F)F)C3)c3c2CCC3)C1=O (stereo not shown) [Compound 2-21]
not listed: [6]
at least 75%: all other assays above

O=C(CNC(=O)c1ccc(C2=NOC(c3cc(Cl)cc(Cl)c3)(C(F)(F)F)C2)c2c1CCCC2)NCC(F)(F)F (stereo not shown) [Compound 3-4]
not listed: [6]
at least 75%: all other assays above

Reference: patent US10226045B2, “Azoline compounds” (priority 2014, dated 2019)
